Experimental data taken from the supplement of paper PMC10849652.
The other results are listed elsewhere or left out.

Sequences of proteins named here, by UniProt entry; tags and fusion partners are left off. A change or cut given only in a name is not applied to a line headed by its entry.
UniProt Q13200: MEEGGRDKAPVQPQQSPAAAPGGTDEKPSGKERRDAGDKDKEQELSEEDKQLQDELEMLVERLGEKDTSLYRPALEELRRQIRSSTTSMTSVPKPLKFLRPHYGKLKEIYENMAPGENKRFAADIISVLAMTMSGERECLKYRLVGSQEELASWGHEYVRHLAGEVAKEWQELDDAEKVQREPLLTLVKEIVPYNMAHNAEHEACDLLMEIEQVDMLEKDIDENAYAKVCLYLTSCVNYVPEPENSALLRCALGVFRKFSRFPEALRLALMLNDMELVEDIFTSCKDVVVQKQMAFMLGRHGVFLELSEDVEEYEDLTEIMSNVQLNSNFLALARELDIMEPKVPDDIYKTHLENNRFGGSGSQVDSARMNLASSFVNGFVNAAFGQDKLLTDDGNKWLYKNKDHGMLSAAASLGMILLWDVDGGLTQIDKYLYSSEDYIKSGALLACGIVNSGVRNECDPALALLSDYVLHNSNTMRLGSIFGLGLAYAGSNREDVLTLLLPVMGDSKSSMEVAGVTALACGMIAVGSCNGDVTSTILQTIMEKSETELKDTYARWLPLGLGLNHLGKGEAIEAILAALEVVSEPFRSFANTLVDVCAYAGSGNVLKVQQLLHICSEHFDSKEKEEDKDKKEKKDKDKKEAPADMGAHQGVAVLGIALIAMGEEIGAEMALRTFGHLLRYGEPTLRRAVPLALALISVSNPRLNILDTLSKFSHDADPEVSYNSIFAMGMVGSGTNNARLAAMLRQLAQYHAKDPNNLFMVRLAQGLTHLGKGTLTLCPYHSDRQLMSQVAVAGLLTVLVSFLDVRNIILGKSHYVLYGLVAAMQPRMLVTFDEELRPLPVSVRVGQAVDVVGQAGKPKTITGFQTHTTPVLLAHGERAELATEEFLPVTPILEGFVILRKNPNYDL
UniProt Q2TAL8: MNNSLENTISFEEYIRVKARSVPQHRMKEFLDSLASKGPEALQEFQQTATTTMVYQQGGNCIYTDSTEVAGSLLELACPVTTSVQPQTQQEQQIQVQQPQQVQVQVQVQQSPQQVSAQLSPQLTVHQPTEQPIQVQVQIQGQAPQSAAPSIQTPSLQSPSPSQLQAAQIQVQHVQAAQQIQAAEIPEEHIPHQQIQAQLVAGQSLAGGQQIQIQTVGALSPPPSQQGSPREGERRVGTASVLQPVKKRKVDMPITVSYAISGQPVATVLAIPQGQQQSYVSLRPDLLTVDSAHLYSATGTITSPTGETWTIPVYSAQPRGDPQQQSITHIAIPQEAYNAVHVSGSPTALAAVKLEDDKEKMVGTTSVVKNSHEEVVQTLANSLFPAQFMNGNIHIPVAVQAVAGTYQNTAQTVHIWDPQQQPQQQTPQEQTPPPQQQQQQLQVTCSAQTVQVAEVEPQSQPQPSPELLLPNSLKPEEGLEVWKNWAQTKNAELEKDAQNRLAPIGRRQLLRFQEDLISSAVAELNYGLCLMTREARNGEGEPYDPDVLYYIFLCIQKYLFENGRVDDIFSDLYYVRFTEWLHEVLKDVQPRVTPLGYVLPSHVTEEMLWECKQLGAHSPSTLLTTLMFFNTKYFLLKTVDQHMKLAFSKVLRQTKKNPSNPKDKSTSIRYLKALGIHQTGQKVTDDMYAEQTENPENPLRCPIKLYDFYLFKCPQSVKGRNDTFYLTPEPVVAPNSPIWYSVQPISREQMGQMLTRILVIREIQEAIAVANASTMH
UniProt Q9Y606: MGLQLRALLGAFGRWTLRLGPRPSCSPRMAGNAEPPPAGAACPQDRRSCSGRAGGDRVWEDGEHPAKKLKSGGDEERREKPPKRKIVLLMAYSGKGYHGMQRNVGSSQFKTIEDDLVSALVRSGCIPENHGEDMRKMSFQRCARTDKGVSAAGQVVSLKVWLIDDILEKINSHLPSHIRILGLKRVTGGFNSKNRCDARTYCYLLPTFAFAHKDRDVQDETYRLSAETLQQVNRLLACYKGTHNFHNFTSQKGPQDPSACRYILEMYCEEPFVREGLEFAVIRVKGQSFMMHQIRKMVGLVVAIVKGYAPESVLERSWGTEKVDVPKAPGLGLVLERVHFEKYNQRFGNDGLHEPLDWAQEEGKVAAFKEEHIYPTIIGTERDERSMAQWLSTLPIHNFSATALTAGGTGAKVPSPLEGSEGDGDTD
UniProt P28074: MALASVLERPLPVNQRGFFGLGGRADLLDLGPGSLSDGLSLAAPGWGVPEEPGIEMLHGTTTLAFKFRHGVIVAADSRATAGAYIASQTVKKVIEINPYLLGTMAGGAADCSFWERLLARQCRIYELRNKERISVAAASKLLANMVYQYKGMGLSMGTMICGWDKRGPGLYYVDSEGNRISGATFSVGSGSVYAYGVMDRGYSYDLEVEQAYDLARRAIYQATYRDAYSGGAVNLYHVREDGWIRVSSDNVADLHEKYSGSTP
UniProt Q96I23: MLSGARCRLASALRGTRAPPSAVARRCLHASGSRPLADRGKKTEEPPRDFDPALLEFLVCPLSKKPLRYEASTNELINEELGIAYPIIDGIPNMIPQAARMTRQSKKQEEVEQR
UniProt O95997: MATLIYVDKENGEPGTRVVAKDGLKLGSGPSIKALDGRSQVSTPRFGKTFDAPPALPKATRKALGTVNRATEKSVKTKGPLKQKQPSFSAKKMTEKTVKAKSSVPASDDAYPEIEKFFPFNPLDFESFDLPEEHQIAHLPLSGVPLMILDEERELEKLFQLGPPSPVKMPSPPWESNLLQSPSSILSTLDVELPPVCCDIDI
UniProt Q9H7Z7: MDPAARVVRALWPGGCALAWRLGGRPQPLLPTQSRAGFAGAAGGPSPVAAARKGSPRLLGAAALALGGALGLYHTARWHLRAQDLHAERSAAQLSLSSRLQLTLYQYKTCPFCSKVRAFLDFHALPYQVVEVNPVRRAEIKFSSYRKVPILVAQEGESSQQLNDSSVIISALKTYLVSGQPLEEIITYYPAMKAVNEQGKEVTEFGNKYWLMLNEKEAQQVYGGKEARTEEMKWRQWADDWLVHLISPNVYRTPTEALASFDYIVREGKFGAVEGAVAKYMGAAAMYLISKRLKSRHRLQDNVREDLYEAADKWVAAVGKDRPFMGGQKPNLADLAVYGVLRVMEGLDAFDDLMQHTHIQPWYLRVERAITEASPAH
UniProt Q9BXR0: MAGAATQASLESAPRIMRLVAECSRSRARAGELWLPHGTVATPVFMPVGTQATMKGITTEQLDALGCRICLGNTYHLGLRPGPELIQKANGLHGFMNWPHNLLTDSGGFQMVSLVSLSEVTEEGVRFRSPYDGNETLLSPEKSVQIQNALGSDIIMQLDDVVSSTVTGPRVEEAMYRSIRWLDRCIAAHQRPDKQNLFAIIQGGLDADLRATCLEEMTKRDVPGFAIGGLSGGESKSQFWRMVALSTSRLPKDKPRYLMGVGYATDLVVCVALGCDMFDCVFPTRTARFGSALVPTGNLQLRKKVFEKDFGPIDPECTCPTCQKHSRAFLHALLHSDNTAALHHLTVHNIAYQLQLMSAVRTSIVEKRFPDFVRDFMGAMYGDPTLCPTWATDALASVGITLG
UniProt Q05397, whole entry, looked up: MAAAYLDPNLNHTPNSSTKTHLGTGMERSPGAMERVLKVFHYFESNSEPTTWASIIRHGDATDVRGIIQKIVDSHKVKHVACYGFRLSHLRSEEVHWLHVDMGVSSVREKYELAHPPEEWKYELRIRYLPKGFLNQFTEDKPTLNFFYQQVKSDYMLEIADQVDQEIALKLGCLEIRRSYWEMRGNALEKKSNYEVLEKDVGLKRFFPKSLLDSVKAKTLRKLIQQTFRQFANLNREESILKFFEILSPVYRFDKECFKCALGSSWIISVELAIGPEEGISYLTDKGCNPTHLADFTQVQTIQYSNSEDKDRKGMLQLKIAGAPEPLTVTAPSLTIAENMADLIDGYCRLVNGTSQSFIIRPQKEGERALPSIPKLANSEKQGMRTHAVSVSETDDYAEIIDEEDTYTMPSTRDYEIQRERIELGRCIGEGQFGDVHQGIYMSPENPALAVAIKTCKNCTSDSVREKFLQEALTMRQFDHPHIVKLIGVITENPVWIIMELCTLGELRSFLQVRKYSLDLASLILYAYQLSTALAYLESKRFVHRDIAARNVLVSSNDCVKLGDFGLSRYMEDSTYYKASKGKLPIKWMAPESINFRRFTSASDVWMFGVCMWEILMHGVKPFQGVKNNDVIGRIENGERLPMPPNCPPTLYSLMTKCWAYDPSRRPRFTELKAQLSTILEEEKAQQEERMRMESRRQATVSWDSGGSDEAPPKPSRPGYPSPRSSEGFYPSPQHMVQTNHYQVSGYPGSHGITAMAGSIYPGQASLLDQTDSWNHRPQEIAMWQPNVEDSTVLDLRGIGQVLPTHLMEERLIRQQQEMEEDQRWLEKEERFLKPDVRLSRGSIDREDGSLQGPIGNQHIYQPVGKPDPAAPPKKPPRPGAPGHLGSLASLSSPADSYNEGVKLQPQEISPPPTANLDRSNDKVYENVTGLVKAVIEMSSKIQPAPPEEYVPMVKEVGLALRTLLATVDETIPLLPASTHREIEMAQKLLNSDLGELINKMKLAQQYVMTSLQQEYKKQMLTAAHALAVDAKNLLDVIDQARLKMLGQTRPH

Columns and labels:
Assay in all cases: log2 fold change, soluble protein after heating vs DMSO (PISA); higher = thermal stabilisation; K562 cells, 10 uM, 30 min; active = over 0.2 and 3.5 SD of the protein, either way, in both replicates (recomputed)
[1] = compound: Cc1ccc(NC(=O)c2ccc(CN3CC[C@H](N(C)C)C3)c(C(F)(F)F)c2)cc1Nc1nccc(-c2cncnc2)n1 [bafetinib]
Summary of the method: (§1)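 K562 cells at 2×10^6 cells/mL were treated with 10 μM compound for 30 min. Aliquots were heated for 3 min across 48°C-58°C, pooled, and extracted in PBS with 0.5% NP-40 at 4°C; soluble protein was the supernatant after 21,000xg for 90 min. Soluble protein was quantified by TMTpro 16plex LC-MS/MS with channel sums equalised, and reported as log2 fold change in thermal stability against DMSO controls, with values from duplicates.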

[2] = compound: Cc1cccc(CC(=O)N2CCc3c2ccc(-c2cn(C)c4ncnc(N)c24)c3F)n1
Summary of the method: as §1

[3] = compound: Cc1cn(-c2cc(NC(=O)c3ccc(C)c(Nc4nccc(-c5cccnc5)n4)c3)cc(C(F)(F)F)c2)cn1 [nilotinib]
Summary of the method: as §1

[4] = compound: Cc1nc(Nc2n[nH]c3c2CN(C(=O)N[C@H](CN(C)C)c2ccccc2)C3(C)C)c2sccc2n1
Summary of the method: as §1

[5] = compound: Cc1nc(Nc2ncc(C(=O)Nc3c(C)cccc3Cl)s2)cc(N2CCN(CCO)CC2)n1 [dasatinib]
Summary of the method: as §1

[6] = compound: Cc1ncc(-c2ccnc(Nc3ccc(S(C)(=O)=O)cc3)n2)n1C(C)C
Summary of the method: as §1

[7] = compound: Cn1cc(-c2ccc3c(c2)CCN3C(=O)Cc2cccc(C(F)(F)F)c2)c2c(N)ncnc21
Summary of the method: as §1

[8] = compound: Cn1cc(-c2ccc3nnc(C(F)(F)c4ccc5ncccc5c4)n3n2)cn1
Summary of the method: as §1

[9] = compound: Cn1cncc1[C@@](N)(c1ccc(Cl)cc1)c1ccc2c(c1)c(-c1cccc(Cl)c1)cc(=O)n2C [tipifarnib]
Summary of the method: as §1

[10] = compound: FC(F)(F)c1ccc(/C=C/c2nc(COc3ccc(CCCCn4ccnn4)cc3)co2)cc1 [mubritinib]
Summary of the method: as §1

Measured: log2 fold change

PSMD2 (UniProt Q13200)
inactive: [1] 0.079 | [2] 0 | [3] -0.031 | [4] 0.061 | [5] 0.031 | [6] -0.005 | [7] -0.12 | [8] -0.006 | [9] 0.07 | [10] -0.038

QRICH1 (UniProt Q2TAL8)
inactive: [1] 0.042 | [3] -0.093 | [4] -0.118 | [5] -0.206 | [6] 0.078 | [7] 0.043 | [8] 0.108 | [9] -0.159 | [10] -0.01

PUS1 (UniProt Q9Y606)
inactive: [1] -0.024 | [2] 0.076 | [7] 0.043 | [8] -0.049 | [9] 0.064

PSMB5 (UniProt P28074)
inactive: [1] 0.142 | [2] 0.015 | [3] -0.006 | [4] 0.043 | [5] 0.029 | [6] 0.005 | [7] -0.04 | [8] -0.023 | [9] -0.012 | [10] -0.014

Two neighbouring records out of the list so far, for reference:
QRICH1 (UniProt Q2TAL8)
inactive: [1] 0.042 | [3] -0.093 | [4] -0.118 | [5] -0.206 | [6] 0.078 | [7] 0.043 | [8] 0.108 | [9] -0.159 | [10] -0.01

PUS1 (UniProt Q9Y606)
inactive: [1] -0.024 | [2] 0.076 | [7] 0.043 | [8] -0.049 | [9] 0.064

The listing continues:

PYURF (UniProt Q96I23)
inactive: [1] 0.062 | [2] -0.051 | [3] 0.092 | [4] 0.011 | [5] 0.04 | [6] 0.045 | [7] 0.02 | [9] -0.01 | [10] 0.071

PSMD4 (UniProt Q5VWC4)
inactive: [1] 0.09 | [2] -0.162 | [3] 0.041 | [4] 0.21 | [6] 0.1 | [7] -0.071 | [9] 0.016 | [10] -0.003

PTTG1 (UniProt O95997)
inactive: [1] 0.062 | [2] 0.021 | [3] -0.025 | [4] -0.011 | [5] 0.031 | [6] -0.116 | [7] 0.024 | [8] -0.066 | [9] -0.013 | [10] 0.033

PTGES2 (UniProt Q9H7Z7)
inactive: [1] -0.055 | [2] 0.005 | [3] 0.048 | [4] 0 | [5] 0.017 | [6] -0.036 | [7] 0.042 | [8] 0.048 | [9] -0.03 | [10] 0.052

QTRT1 (UniProt Q9BXR0)
inactive: [1] -0.009 | [2] -0.03 | [3] 0.015 | [4] -0.012 | [5] 0.034 | [6] -0.001 | [7] 0.055 | [8] -0.012 | [9] 0.004 | [10] 0.043

PTK2 (UniProt Q05397)
inactive: [1] -0.023 | [2] -0.004 | [3] 0.007 | [4] 0.081 | [5] -0.003 | [6] 0.026 | [7] 0.036 | [8] -0.016 | [9] -0.027 | [10] 0.01
